{
  "source": "patent US20090054414A1",
  "about": "“Rufinamide for the Treatment of Post-Traumatic Stress Disorder” (SYNOSIA THERAPEUTICS, priority 2007, published 2009)",
  "key": {"“intruder” rat [1]": {"test_system": "“intruder” rat", "conditions": "background statement on anxiolytic compounds; cited from earlier work"}, "“intruder” rat [2]": {"test_system": "“intruder” rat", "experiment": "social exploration test in rats", "type": "in vivo", "conditions": "chlordiazepoxide 5 mg/kg p.o. (positive standard), 1 hour after application, vs vehicle", "text": "There remains a paucity of data investigating the anxiolytic potential of this rufinamide. Therefore the aim of the present study was to test the effect of rufinamide (FIG. 1, chemical structure of rufinamide) with regard to a possible facilitation of social behavior (anxiolytic-like effect) using the social exploration test in rats as a paradigm. The basis of this test is that when an adult “resident” rat is kept in social isolation for two weeks, its natural tendency to establish territorial defensive reactions is increased. […] Male adult Sprague Dawley rats (Ra238, OFA/IC strain, Iffa Credo, France) (“residents”) weighing 350-400 g and young Lister Hooded rats (li/ho, Harlan, The Netherlands) (“intruders”) weighing 100-120 g were used. “Intruders” were housed in pairs and the “residents” were individually housed for two weeks before the test in plastic cages (Macrolon, 42×26×15 cm). All animals lived in a room lit from 6 a.m. until 6 p.m. and had always free access to standard food and water. […]\nPairs consisting of one “intruder” rat and one “resident” rat were assigned at random to one of the experimental or the control groups. […] The duration of active approach behaviors of the “intruder” rat (sniffing, anogenital exploration, nosing, grooming, licking, playing) towards the “resident” was manually registered and cumulatively recorded over a period of 5 minutes. […]"}, "Male OF1/IC mice [3]": {"test_system": "Male OF1/IC mice", "experiment": "modified stress-induced hyperthermia (SIH) test", "type": "in vivo, mouse", "conditions": "CDZ 10 mg/kg p.o.", "experimental": "Rufinamide was tested in the modified stress-induced model of anxiety. The stress-induced hyperthermia test in mice is a paradigm developed several years ago to model the expression of autonomic hyperactivity in anxiety (Lecci A, Borsini F, Volterra G, Meli A. (1990) Pharmacological validation of a novel model of anticipatory anxiety in mice. Psychopharmacology; 101:255-61.; Spooren W P, Schoeffter P, Gasparini F, Kuhn R, Gentsch C. (2002) Pharmacological and endocrinological characterisation of stress-induced hyperthermia in singly housed mice using classical and candidate anxiolytics (LY314582, MPEP and NKP608). Eur J Pharmacol; 435:161-70.;Zethof T J J, van der Heyden J A M, Tolboom J B M, Olivier B (1994) Stress-induced hyperthermia in mice: a methodological study. Phys. Behav. 55:109-115.). […] Pharmacol Biochem Behav 72:179-188.\nMale OF1/IC mice (MA205 Tiger code) were obtained several days prior to behavioural testing from Iffa Credo (L'Arbresle, France; 18-20 g) and housed in groups of 15 animals per cage (macrolon cages 42H26H15 cm, Type 4). The animals were individually housed (macrolon cage: 26H21H14 cm, Type 2) 24 h before testing. The day preceding the experiment, all cages were transferred to the testing room—and background noise (radio) was used during the light cycle. Both the animal room and the laboratory were temperature controlled and equipped with artificial illumination (L12:D12; lights on 06:00). Mice always had ad libitum access to water and food (Ecosan, Eberle Nafag A G, Gossau, Schweiz).\nThe test procedure for the modified stress-induced hyperthermia was adapted from van der Heyden et al. (1997). Rectal temperature was measured in each mouse twice, i.e. at t=0 min (T1) and t=+15 min (T2). The difference in temperature (T2-T1) was considered to reflect the stress-induced hyperthermia (SIH). […] In addition, a comparison between T1 in vehicle-treated mice and in animals treated with a given dose of a test-compound was used, to measure whether a test-compound affected body temperature alone.\nRectal temperature was measured to the nearest 0.1° C. by an ELLAB instruments (Copenhagen, Denmark) thermometer Model DM 852 by inserting a lubricated thermistor probe model PRA-22002-A (ELLAB, Copenhagen, Denmark) (2.2 mm diameter) 20 mm into the rectum; the mouse was hand held at the base of the tail during this determination and the thermistor probe was left in place for 15 s.\nAll drugs were made up fresh and dissolved in vehicle (0.5% methylcellulose) and administered per os (p.o.) in a volume of 10 ml/kg.\nAll data was analysed using a one-way analysis of variance (ANOVA) followed where appropriate by Dunnett test of multiple comparisons. The level of significance was set at p<0.05."}, "Male OF1/IC mice [4]": {"test_system": "Male OF1/IC mice", "conditions": "CDZ 10 mg/kg p.o.; previous studies (Spooren et al. 2002); cited from earlier work"}},
  "note": "For at least one compound, name, drawing or mass did not settle the structure.",
  "data": [
    {"compound": "CNC1=Nc2ccc(Cl)cc2C(c2ccccc2)=[N+]([O-])C1", "note": "[chlordiazepoxide]", "values": [
      {"measurement": "intruder's fear and tendency to scrutinize the resident partner", "setting": "“intruder” rat [1]", "value": "reduce the intruder's fear and to increase its tendency to scrutinize the resident partner"},
      {"measurement": "duration of social contacts of an intruder toward a resident rat", "setting": "“intruder” rat [2]", "value": "significantly increased"},
      {"measurement": "SIH response (T2-T1)", "setting": "Male OF1/IC mice [3]; first experiment, p<0.001", "value": "reversed significantly"},
      {"measurement": "body temperature T2 (15 min after stress)", "setting": "Male OF1/IC mice [3]; first experiment, p<0.001", "value": "significant lower body temperature than control animals"},
      {"measurement": "SIH response (T2-T1)", "setting": "Male OF1/IC mice [3]; pooled data of all 3 experiments", "value": "significantly attenuated"},
      {"measurement": "body temperature T2 (15 min after stress)", "setting": "Male OF1/IC mice [3]; pooled data", "value": "significant lower body temperature than control animals"},
      {"measurement": "body temperature T2 (15 min after stress)", "setting": "Male OF1/IC mice [3]; second experiment", "value": "significant lower body temperature than control animals"},
      {"measurement": "SIH response (T2-T1)", "setting": "Male OF1/IC mice [3]; second experiment, p<0.001", "value": "significantly attenuated"},
      {"measurement": "SIH response (T2-T1)", "setting": "Male OF1/IC mice [3]; third experiment", "value": "significantly reduced"},
      {"measurement": "body temperature T2 (15 min after stress)", "setting": "Male OF1/IC mice [3]; third experiment, independent comparisons of T2", "value": "no stress-attenuating effect was seen"},
      {"measurement": "reversal of SIH response", "setting": "Male OF1/IC mice [4]", "value": "maximal reversal"}
    ]}
  ]
}
